The list shows a part of the results. Repeats in this data set agree poorly, so a single value says little.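 Fusion between ACE2-bearing and full-length-spike-bearing U2OS cells was measured by imaging as the percentage of nuclei with both cell types' fluorescent markers. An inhibitory hit is a non-toxic compound whose fusion z-score is below -3, more than three standard deviations beneath the plate's DMSO wells.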
Test system: U2OS ACE2 x SARS-CoV-2 spike co-culture
Experiment: cell-cell fusion (fraction fused) z-score vs plate DMSO control; higher = more fusion
Settings: 30 µM; 5 h; toxicity class: non-toxic, passed QC

SMILES	cell-cell fusion (z-score)
CC(C)C[C@H](NC(=O)CNC(=O)c1cc(Cl)ccc1Cl)B1OC(=O)CC(CC(=O)O)(C(=O)O)O1 (stereo partly drawn)	inactive: 4.45
CC[N+](CC)(CC)CCOc1ccc(/C=C/c2ccccc2)cc1.[I-]	inactive: -0.208
CC(C)(C)c1cc(C(C)(C)C)c2c(c1)C(O)(C(F)(F)F)C(=O)O2 (racemic)	inactive: 2.11
CC1=C(CC(=O)O)c2cc(F)ccc2/C1=C\c1ccc(S(C)=O)cc1 (stereo not drawn) [Sulindac]	inactive: 2.72
CC(C)Nc1cccnc1N1CCN(C(=O)c2cc3cc(NS(C)(=O)=O)ccc3[nH]2)CC1.CS(=O)(=O)O [Delavirdine]	inactive: 3.28
CCN(CC)CC#CCOC(=O)C(O)(c1ccccc1)C1CCCCC1 (stereo not drawn) [Oxybutynin]	inactive: 2.37
Cc1nc(NC(=O)N2CCC[C@H]2C(N)=O)sc1-c1ccnc(C(C)(C)C(F)(F)F)c1	active: -4.91
C/C(=C\C(=O)Nc1ccccc1C(=O)O)c1ccc2ccccc2c1	inactive: 1.75
O=C1NCCc2[nH]c(-c3ccncc3)cc21	inactive: 2.26
N#C/C(=C(/N)Sc1ccc(N)cc1)c1ccccc1C(F)(F)F	inactive: 0.173
CC[C@H]1OC(=O)[C@H](C)[C@@H](O[C@H]2C[C@@](C)(OC)[C@@H](O)[C@H](C)O2)[C@H](C)[C@@H](O[C@@H]2O[C@H](C)C[C@H](N(C)C)[C@H]2O)[C@](C)(O)C[C@@H](C)CN(C)[C@H](C)[C@@H](O)[C@]1(C)O.O.O [Azithromycin dihydrate]	inactive: 3.35
NC(=O)c1cccc(-c2cc(Nc3ccc(OC(F)(F)F)cc3)ncn2)c1	active: -9.38
CC(C)Cn1c(=O)n(C)c(=O)c2[nH]cnc21 [3-Isobutyl-1-methylxanthine]	inactive: 2.18
CC(C)Cn1c(=O)n(C)c(=O)c2[nH]cnc21	inactive: 0.745
N#CC[C@@H](C1CCCC1)n1cc(-c2ncnc3[nH]ccc23)cn1	inactive: -1
CNC(=O)[C@H]1O[C@@H](n2cnc3c(NCc4cccc(I)c4)ncnc32)C(O)[C@H]1O (stereo partly drawn)	inactive: 0.85
CN1CCN(C(=O)O[C@H]2c3nccnc3C(=O)N2c2ccc(Cl)cn2)CC1	inactive: 3.74
CC(C)Nc1ncccn1	inactive: 0.78
C#C[C@]1(OC(C)=O)CC[C@H]2[C@@H]3CCC4=C/C(=N/O)CC[C@@H]4[C@H]3CC[C@@]21CC [Norgestimate]	active: -5.46
O=c1cc(-c2ccccc2)oc2cccc(O)c12	inactive: 1.92
CC1CC(OC(=O)C(O)c2ccccc2)CC(C)(C)C1 (stereo not drawn)	inactive: 1.09
C[C@@H](N)[C@@H](O)c1ccccc1.Cl	inactive: 0.809
COc1ccc(NC(=O)c2ccc(C(=N)N(C)C)cc2)c(C(=O)Nc2ccc(Cl)cn2)c1 [Betrixaban]	inactive: 0.144

SMILES	cell-cell fusion (z-score)
CC(=O)OCC(=O)[C@@]1(O)[C@H](C)CC2C3CCC4=CC(=O)C=C[C@]4(C)[C@@]3(F)[C@@H](O)C[C@@]21C (stereo partly drawn)	inactive: 1.3
Cc1cn(-c2cc(NC(=O)c3ccc(C)c(Nc4nccc(-c5cccnc5)n4)c3)cc(C(F)(F)F)c2)cn1 [Nilotinib (AMN-107)]	inactive: 2.72
CCN(CC)C(=O)c1ccc(O)c(OC)c1 [Vanillic acid diethylamide]	inactive: 1.78
CCN(CC)C(=O)c1ccc(O)c(OC)c1	inactive: 3.02
CCOC(=O)[C@H](CCc1ccccc1)N[C@@H](C)C(=O)N1Cc2ccccc2C[C@H]1C(=O)O.Cl	inactive: -0.111
COc1ccc2c(c1)c(CC(=O)O)c(C)n2C(=O)c1ccc(Cl)cc1 [Indometacin]	inactive: 3.4
CN[C@@H]1[C@@H](O[C@H]2O[C@H](CO)[C@@H](N)[C@H](O)[C@H]2O)O[C@H]2C[C@@H](N)[C@H](O[C@H]3[C@H](O)[C@@H](O)[C@H](N)C[C@@H]3N)O[C@@H]2[C@@H]1O	inactive: 2.44
OC[C@@H](O)[C@@H](O[C@@H]1O[C@H](CO)[C@@H](O)[C@H](O)[C@H]1O)[C@H](O)[C@@H](O)CO	inactive: 1.64
CN1C(=O)CC(c2ccccc2)C1=O (stereo not drawn)	inactive: 2.72
C=CCc1ccc([N+](C)(C)CCC(=O)CC[N+](C)(C)c2ccc(CC=C)cc2)cc1.[Br-].[Br-]	inactive: 2.03
CCCCCCCCC(=O)NCc1ccc(O)c(OC)c1	inactive: -0.483
CNCCc1ccc(O)c(O)c1.Cl [N-Methyldopamine hydrochloride]	inactive: -2.07
COC(=O)C(c1ccccc1)C1CCCCN1.Cl (stereo not drawn)	inactive: 4.3
CNCC[C@H](Oc1ccc(C(F)(F)F)cc1)c1ccccc1.Cl [S-(+)-Fluoxetine hydrochloride]	inactive: 0.0444
Cl.Clc1ccc(N2CCN(Cc3c[nH]c4ncccc34)CC2)cc1 [L-745,870 hydrochloride]	inactive: 2.78
O=C([O-])c1ccccc1-c1c2cc(Br)c(=O)cc-2oc2[c]([Hg][OH])c([O-])c(Br)cc12.[Na+].[Na+]	inactive: 2.67
Nc1ccc(C(=O)[O-])c(O)c1.O.O.[Na+] [Sodium 4-aminosalicylate dihydrate]	inactive: 2.69
O=C(O)CC[C@H]1CC[C@@](c2cc(F)ccc2F)(S(=O)(=O)c2ccc(Cl)cc2)CC1	inactive: 2.65
CC#C[C@]1(O)CC[C@H]2[C@@H]3CCC4=CC(=O)CCC4=C3[C@@H](c3ccc(N(C)C)cc3)C[C@@]21C [Mifepristone]	inactive: 2.73
NC(=O)c1ccccc1 [Benzamide]	inactive: 1.24
CCN[C@H]1CN(CCCOC)S(=O)(=O)c2sc(S(N)(=O)=O)cc21 [Brinzolamide]	inactive: 0.972
CCN(CC)C(=O)/C(C#N)=C/c1cc(O)c(O)c([N+](=O)[O-])c1	inactive: 1.01
Cc1cc2c(C(C)C)c(O)c(O)c(C=O)c2c(O)c1-c1c(C)cc2c(C(C)C)c(O)c(O)c(C=O)c2c1O [Gossypol]	active: -6.77

SMILES	cell-cell fusion (z-score)
CC(C)(C)c1onc(O)c1CC([NH3+])C(=O)[O-] (stereo not drawn)	inactive: 1.04
COC(=O)C[C@H]1C(C)(C)C(=O)[C@@H]2CC3=C4CC(=O)O[C@@H](c5ccoc5)[C@]4(C)CCC3[C@@]1(C)C2=O (stereo partly drawn)	inactive: 0.862
CNS(=O)(=O)Cc1ccc2[nH]cc(CCN(C)C)c2c1.O=C(O)CCC(=O)O	inactive: 2.65
COc1ccc(CCN(C)CCCC(C#N)(c2cc(OC)c(OC)c(OC)c2)C(C)C)cc1OC.Cl (racemic) [(±)-Methoxyverapamil hydrochloride]	inactive: 3.52
COc1ccc(CN(CCN(C)C)c2ncccn2)cc1.Cl	inactive: 3.43
Cc1cn([C@H]2C[C@@H](N=[N+]=[N-])[C@@H](CO)O2)c(=O)[nH]c1=O [3'-Azido-3'-deoxythymidine]	inactive: 1.53
CN1CCN(CCCN2c3ccccc3Sc3ccc(C(F)(F)F)cc32)CC1.Cl.Cl	inactive: 3.46
NC(=O)N1c2ccccc2C=Cc2ccccc21	inactive: 0.899
NC(=O)N1c2ccccc2C=Cc2ccccc21 [Carbamazepine]	inactive: 1.05
CN(C)CCCN1c2ccccc2Sc2ccc(Cl)cc21	inactive: 0.457
CO[C@H]1C[C@H](O[C@H]2[C@H](C)[C@@H](OC3O[C@H](C)C[C@H](N(C)C)[C@H]3OC(C)=O)[C@@H](C)C[C@]3(CO3)C(=O)[C@H](C)[C@@H](OC(C)=O)[C@@H](C)[C@@H](C)OC(=O)[C@@H]2C)O[C@@H](C)[C@@H]1OC(C)=O (stereo partly drawn)	inactive: 2.96
Br.C=CCN1CCc2cc(O)c(O)cc2C(c2ccccc2)C1 (racemic)	inactive: -0.491
CC(C)=CCCC1(C)C=Cc2c(O)c3c(c(CC=C(C)C)c2O1)OC12C(=CC4CC1C(C)(C)OC2(C/C=C(/C)C(=O)O)C4=O)C3=O (stereo not drawn)	inactive: 1.9
CC(C)NCC(O)c1ccc(NS(C)(=O)=O)cc1.Cl (stereo not drawn)	inactive: 2.43
O=c1[nH]c(=S)[nH]c(-c2ccccc2)c1Cc1c(O)ccc2ccccc12 [Cambinol]	inactive: 0.941
Cl.NCCc1ccc(S(=O)(=O)F)cc1 [4-(2-Aminoethyl)benzenesulfonyl fluoride hydrochloride]	inactive: 1.96
C[C@@H]1CC[C@H]2[C@@H](C)C(=O)O[C@@H]3O[C@]4(C)CC[C@@H]1[C@]32OO4	inactive: 2.71
CCN(CC)C(=O)[C@]1(c2ccccc2)C[C@@H]1CN.Cl [Milnacipran hydrochloride]	inactive: 2.12
COc1ccc(C(=O)NCc2ccc(OCCN(C)C)cc2)cc1OC	inactive: 3.23
CN[C@@H]1[C@H](O)[C@H](NC)[C@H]2O[C@@]3(O)C(=O)C[C@@H](C)O[C@H]3O[C@@H]2[C@H]1O.Cl.Cl [Spectinomycin dihydrochloride]	inactive: 2.51
COc1cc(NS(=O)(=O)c2ccc(N)cc2)ncn1	inactive: 3.64
O=c1c(-c2ccc(O)cc2)coc2cc(O)ccc12 [Daidzein]	inactive: 2.21

Three entries from above, as a markdown table.

| SMILES | cell-cell fusion (z-score) |
| --- | --- |
| CNCC[C@H](Oc1ccc(C(F)(F)F)cc1)c1ccccc1.Cl [S-(+)-Fluoxetine hydrochloride] | inactive: 0.0444 |
| Cl.Clc1ccc(N2CCN(Cc3c[nH]c4ncccc34)CC2)cc1 [L-745,870 hydrochloride] | inactive: 2.78 |
| O=C([O-])c1ccccc1-c1c2cc(Br)c(=O)cc-2oc2[c]([Hg][OH])c([O-])c(Br)cc12.[Na+].[Na+] | inactive: 2.67 |

Source: the supplement of paper PMC8104966
